Data as given in PubChem BioAssay AID686943 (Drosophila RNAi Screening Center, 2013)

Purpose: 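Search across the genome for regulators of signalling from receptor tyrosine kinase to ERK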 (primary screen)
Cells: Drosophila S2R+ haemocyte-like cells expressing YFP-tagged ERK (Rolled)
Reagent: long dsRNA against Drosophila genes
Treatment: insulin stimulation versus unstimulated cells; dose and duration not given
Measured: 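Per-plate z-scores of phospho-ERK immunostaining normalised to YFP-tagged ERK, measured with and without insulin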
Reading the numbers: replicate 1, z-score of dpERK with insulin and replicate 2, z-score of dpERK with insulin: higher = more active ERK per ERK-YFP after insulin
In all, the deposit lists about 23,000 reagents; shown is a random part of those with a known target gene and a result. 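Extra replicates exist only for a retested subset of genes; insulin dose and duration not given; both raised and lowered dpERK matter.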 Names joined by + are all predicted targets of the reagent. Further read-outs or replicates are left out here. No sequences are given here. Not given: the amount of reagent, the time to read-out.

{"gene": "CR30029", "DRSC id": "DRSC06724", "replicate 1, z-score of dpERK with insulin": -0.38, "replicate 2, z-score of dpERK with insulin": -0.54}
{"gene": "Klf15", "DRSC id": "DRSC17742", "replicate 1, z-score of dpERK with insulin": 0.14, "replicate 2, z-score of dpERK with insulin": 0.08}
{"gene": "Cyp305a1", "DRSC id": "DRSC11126", "replicate 1, z-score of dpERK with insulin": -0.33, "replicate 2, z-score of dpERK with insulin": -0.07}
{"gene": "Tsen34 + Trl", "DRSC id": "DRSC10014", "replicate 1, z-score of dpERK with insulin": -0.38, "replicate 2, z-score of dpERK with insulin": 0.17}
{"gene": "CG34435", "DRSC id": "DRSC18086", "replicate 1, z-score of dpERK with insulin": 0.16, "replicate 2, z-score of dpERK with insulin": 0.36}
{"gene": "CG6441", "DRSC id": "DRSC02957", "replicate 1, z-score of dpERK with insulin": -0.35, "replicate 2, z-score of dpERK with insulin": 0.07}
{"gene": "Fmr1", "DRSC id": "DRSC16674", "replicate 1, z-score of dpERK with insulin": 0.22, "replicate 2, z-score of dpERK with insulin": 0.15}
{"gene": "Parg", "DRSC id": "DRSC18696", "replicate 1, z-score of dpERK with insulin": 0.07, "replicate 2, z-score of dpERK with insulin": 0.26}
{"gene": "CG18404", "DRSC id": "DRSC15323", "replicate 1, z-score of dpERK with insulin": 0.38, "replicate 2, z-score of dpERK with insulin": 0.06}
{"gene": "Art7", "DRSC id": "DRSC04588", "replicate 1, z-score of dpERK with insulin": -0.73, "replicate 2, z-score of dpERK with insulin": -0.13}
{"gene": "M1BP", "DRSC id": "DRSC16566", "replicate 1, z-score of dpERK with insulin": -3.54, "replicate 2, z-score of dpERK with insulin": 3.97}
{"gene": "CG10194", "DRSC id": "DRSC02025", "replicate 1, z-score of dpERK with insulin": 0.15, "replicate 2, z-score of dpERK with insulin": 0.31}
{"gene": "CG33655", "DRSC id": "DRSC03858", "replicate 1, z-score of dpERK with insulin": -0.24, "replicate 2, z-score of dpERK with insulin": -0.75}
{"gene": "CG43127", "DRSC id": "DRSC09039", "replicate 1, z-score of dpERK with insulin": -0.25, "replicate 2, z-score of dpERK with insulin": 0.15}
{"gene": "l(2)09851", "DRSC id": "DRSC04858", "replicate 1, z-score of dpERK with insulin": 1.36, "replicate 2, z-score of dpERK with insulin": 0.42}
{"gene": "CG1572", "DRSC id": "DRSC19686", "replicate 1, z-score of dpERK with insulin": 0.61, "replicate 2, z-score of dpERK with insulin": 0.54}
{"gene": "Muc91C", "DRSC id": "DRSC16297", "replicate 1, z-score of dpERK with insulin": 0.81, "replicate 2, z-score of dpERK with insulin": 0.74}
{"gene": "Muc91C", "DRSC id": "DRSC21696", "replicate 1, z-score of dpERK with insulin": 1.61, "replicate 2, z-score of dpERK with insulin": 2.45}
{"gene": "rdx", "DRSC id": "DRSC14526", "replicate 1, z-score of dpERK with insulin": -1.45, "replicate 2, z-score of dpERK with insulin": 0.18}
{"gene": "rdx", "DRSC id": "DRSC16580", "replicate 1, z-score of dpERK with insulin": -0.26, "replicate 2, z-score of dpERK with insulin": 0.01}
{"gene": "CG33262", "DRSC id": "DRSC22893", "replicate 1, z-score of dpERK with insulin": -0.23, "replicate 2, z-score of dpERK with insulin": 0.49}
{"gene": "Sesn", "DRSC id": "DRSC04101", "replicate 1, z-score of dpERK with insulin": 0.66, "replicate 2, z-score of dpERK with insulin": -0.2}
{"gene": "Sesn", "DRSC id": "DRSC04102", "replicate 1, z-score of dpERK with insulin": 0.83, "replicate 2, z-score of dpERK with insulin": -0.58}
{"gene": "Sesn", "DRSC id": "DRSC04103", "replicate 1, z-score of dpERK with insulin": -0.05, "replicate 2, z-score of dpERK with insulin": -1.08}
{"gene": "glu", "DRSC id": "DRSC03539", "replicate 1, z-score of dpERK with insulin": -0.07, "replicate 2, z-score of dpERK with insulin": 0.67}
{"gene": "CG3156", "DRSC id": "DRSC18503", "replicate 1, z-score of dpERK with insulin": 0, "replicate 2, z-score of dpERK with insulin": -0.49}
{"gene": "Lint-O", "DRSC id": "DRSC18468", "replicate 1, z-score of dpERK with insulin": 2.94, "replicate 2, z-score of dpERK with insulin": 0.57}
{"gene": "CG4866", "DRSC id": "DRSC06899", "replicate 1, z-score of dpERK with insulin": 0.62, "replicate 2, z-score of dpERK with insulin": 0.39}
{"gene": "Dci", "DRSC id": "DRSC08360", "replicate 1, z-score of dpERK with insulin": -0.64, "replicate 2, z-score of dpERK with insulin": -0.58}
{"gene": "CG3191", "DRSC id": "DRSC18530", "replicate 1, z-score of dpERK with insulin": 0.11, "replicate 2, z-score of dpERK with insulin": -0.15}
{"gene": "CG14007", "DRSC id": "DRSC02339", "replicate 1, z-score of dpERK with insulin": -0.57, "replicate 2, z-score of dpERK with insulin": -0.99}

A portion taken from the entries so far, as a working copy:
{"gene": "Lint-O", "DRSC id": "DRSC18468", "replicate 1, z-score of dpERK with insulin": 2.94, "replicate 2, z-score of dpERK with insulin": 0.57}
{"gene": "CG4866", "DRSC id": "DRSC06899", "replicate 1, z-score of dpERK with insulin": 0.62, "replicate 2, z-score of dpERK with insulin": 0.39}
{"gene": "Dci", "DRSC id": "DRSC08360", "replicate 1, z-score of dpERK with insulin": -0.64, "replicate 2, z-score of dpERK with insulin": -0.58}
{"gene": "CG3191", "DRSC id": "DRSC18530", "replicate 1, z-score of dpERK with insulin": 0.11, "replicate 2, z-score of dpERK with insulin": -0.15}
